These results are taken from patent publication US20190030072A1.

Protein sequences, listed by entry. Tags and fused reporters are not part of them. Residues count along the entry.
UniProt P46379: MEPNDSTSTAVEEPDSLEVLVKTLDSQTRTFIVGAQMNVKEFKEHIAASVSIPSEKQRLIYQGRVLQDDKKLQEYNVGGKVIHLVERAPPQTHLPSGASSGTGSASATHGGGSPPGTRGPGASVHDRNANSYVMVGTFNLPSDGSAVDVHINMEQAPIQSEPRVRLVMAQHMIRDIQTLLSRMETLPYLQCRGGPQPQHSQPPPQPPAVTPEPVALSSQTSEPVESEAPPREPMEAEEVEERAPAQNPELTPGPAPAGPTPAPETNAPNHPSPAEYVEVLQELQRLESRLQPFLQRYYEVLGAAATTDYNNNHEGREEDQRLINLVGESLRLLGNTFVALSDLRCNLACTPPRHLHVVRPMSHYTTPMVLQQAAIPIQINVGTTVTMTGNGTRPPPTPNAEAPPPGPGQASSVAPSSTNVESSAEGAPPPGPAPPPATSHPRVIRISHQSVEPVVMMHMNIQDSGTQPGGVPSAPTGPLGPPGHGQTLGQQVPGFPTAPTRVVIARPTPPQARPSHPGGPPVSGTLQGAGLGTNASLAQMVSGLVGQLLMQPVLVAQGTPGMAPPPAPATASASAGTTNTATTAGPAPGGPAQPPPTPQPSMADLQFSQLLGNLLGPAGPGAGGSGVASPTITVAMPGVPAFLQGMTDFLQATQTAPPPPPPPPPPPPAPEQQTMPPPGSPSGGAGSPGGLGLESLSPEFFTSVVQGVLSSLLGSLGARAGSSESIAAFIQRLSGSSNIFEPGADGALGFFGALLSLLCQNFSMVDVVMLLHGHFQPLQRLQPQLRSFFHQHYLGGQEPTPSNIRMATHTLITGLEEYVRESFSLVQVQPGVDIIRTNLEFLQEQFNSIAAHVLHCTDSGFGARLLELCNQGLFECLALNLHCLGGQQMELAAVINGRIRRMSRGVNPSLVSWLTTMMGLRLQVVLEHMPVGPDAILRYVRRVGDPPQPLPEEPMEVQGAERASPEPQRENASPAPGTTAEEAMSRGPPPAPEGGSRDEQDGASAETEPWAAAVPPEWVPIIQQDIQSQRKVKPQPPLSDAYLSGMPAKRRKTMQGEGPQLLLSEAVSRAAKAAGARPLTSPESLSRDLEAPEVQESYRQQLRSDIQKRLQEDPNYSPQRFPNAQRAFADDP
UniProt O14931, residues 19-135: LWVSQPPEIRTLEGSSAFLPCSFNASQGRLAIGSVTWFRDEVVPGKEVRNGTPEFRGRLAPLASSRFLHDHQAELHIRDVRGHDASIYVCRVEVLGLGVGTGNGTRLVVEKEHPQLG

These are yes or no findings as the source states them, for the method shown. Some results given as binding are weak or reduced against the parent protein; the word gives no strength.

For the experiment, the target named is BAG6 on the surface of extracellular vesicles derived from human melanoma cells (D04mel) (human) (UniProt P46379). Nature of the experiment: flow cytometry of EVs bound to microbeads, NKp30-fc detected with Cy3 anti-human fc.

For the substance “recombinant NKp30-fc fusion protein (from UniProt O14931 19-135)”, the binding entry is reported as “binds”.
